This experiment has as its target eukaryotic initiation factor 2 alpha (human) (UniProt P05198). The experiment is described as follows: co-immunoprecipitation with anti-SMAD7 antibody from whole cell extracts (HCT-116, DLD-1, primary colorectal cancer cells), Western blot with anti-EiF2α. For orientation: In western blotting, separated proteins are transferred to a membrane and probed.

Protein sequences, listed by entry. Tags and fused reporters are not part of them.
UniProt P05198: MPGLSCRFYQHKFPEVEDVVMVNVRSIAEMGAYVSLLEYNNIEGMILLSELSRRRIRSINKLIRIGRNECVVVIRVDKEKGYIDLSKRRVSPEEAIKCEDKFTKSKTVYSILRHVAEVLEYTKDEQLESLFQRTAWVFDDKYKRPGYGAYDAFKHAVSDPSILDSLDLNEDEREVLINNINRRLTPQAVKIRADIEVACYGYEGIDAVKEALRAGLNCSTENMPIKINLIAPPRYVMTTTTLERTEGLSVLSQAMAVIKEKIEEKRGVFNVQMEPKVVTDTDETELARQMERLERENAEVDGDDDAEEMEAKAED
UniProt O15105: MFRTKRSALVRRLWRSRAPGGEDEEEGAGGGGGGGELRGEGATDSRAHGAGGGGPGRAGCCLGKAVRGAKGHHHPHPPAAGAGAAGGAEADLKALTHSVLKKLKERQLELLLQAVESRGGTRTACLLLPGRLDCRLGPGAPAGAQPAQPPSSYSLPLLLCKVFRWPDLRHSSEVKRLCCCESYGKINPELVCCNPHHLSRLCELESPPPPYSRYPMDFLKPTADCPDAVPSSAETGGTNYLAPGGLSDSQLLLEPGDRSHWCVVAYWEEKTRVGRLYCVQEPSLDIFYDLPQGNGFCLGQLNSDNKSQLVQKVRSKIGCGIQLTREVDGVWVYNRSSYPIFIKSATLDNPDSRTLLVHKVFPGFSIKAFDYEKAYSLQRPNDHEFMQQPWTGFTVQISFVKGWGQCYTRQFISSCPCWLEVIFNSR

These are yes or no findings as the source states them, for the method shown. Binding seen in cells or lysates may run through a third protein. Some binding calls cover weakened binding; strength is not graded here.

In the case of “SMAD7 (endogenous, human colorectal cancer cells) (from UniProt O15105 1-426)”, the binding result was “binds”.

Source of the values: patent publication EP2970419B1.
